# Assay results from PubChem BioAssay AID1487 (National Center for Advancing Translational Sciences (NCATS), 2009).
# “And” between values parts separate entries of the source, which are not always exact repeats. Identical values can stand only once. The list shows a part of the results. Further columns of the screen follow, without active or inactive calls. Most of these compounds were active or inconclusive in the main read-out, so they are no random draw. Words in brackets tell the shape of the fitted curve; partial curves, single points and poor fits give uncertain potencies.
# Assay: qHTS Assay for Modulators of Lamin A Splicing
# Conditions: HeLa LMNA splicing GFP/RFP minigene ratio, 48 h
# Outline: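 Read-out is the ratio of GFP to DsRed2 object intensity, acquired by 488 nm laser-scanning cytometry on HeLa lamin A-EGFP minigene reporter cells. Compound incubation 48 hrs at 37 °C in Opti-MEM with 2% FBS; DMSO 0.5% final.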
# [1] = measured here: RFP viability control channel
# [2] = measured here: GFP splicing reporter channel
SMILES,AC50 [1],AC50 [2]
Cc1ccc2c(c1)cc(C(=O)Nc1ccccc1C)n2C,"10 µM [rising, partial curve]",
CC1(C)CC(=O)c2cc(OCC(=O)N3CCN(Cc4ccccc4)CC3)ccc2O1,,"14.1 µM [falling, single point]"
CC(C)=O,"0.1 µM [falling, single point]","0.00501 µM [falling, full curve, poor fit]"
O=C(N/N=C/c1c(O)n(CCC2=CCCCC2)c(=S)[nH]c1=O)c1ccccc1,"35.5 µM [rising, single point]",
CCCc1nc2ccc(Br)cc2c(=O)n1-c1ccc([N+](=O)[O-])c(C(F)(F)F)c1,"31.6 µM [rising, single point]",
Clc1ccc([C@@H](OCCN2CCCCC2)c2ccccc2)cc1,,"0.000398 µM [falling, full curve, poor fit]"
CN1/C(=C\C=C2C(=O)NC(=S)NC2=O)C(C)(C)c2ccccc21,"35.5 µM [rising, single point]",
CC1CCC[C@H](O)CCCCCc2cc(O)cc(O)c2C(=O)O1 (stereo partly specified),"31.6 µM [rising, single point]","3.98 µM [falling, partial curve]"
O=C(Nc1ccncc1)c1cccn(Cc2ccccc2)c1=O,,"10 µM [falling, partial curve, poor fit]"
COc1ccc(Cc2nccc3cc(OC)c(OC)cc23)cc1OC,"2 µM [falling, full curve] and 2 µM [rising, full curve]","2 µM [falling, full curve] and 7.08 µM [falling, partial curve]"
O=C(NCCCN1CCOCC1)C(Cl)(Cl)Cl,"1.58 µM [rising, partial curve]","5.62 µM [rising, full curve, poor fit]"
NCCCP(=O)(O)O,"0.00501 µM [falling, full curve, poor fit]",
CCOP(=S)(NN(Cc1ccccc1)C(=O)c1ccccc1)OCC,"1.26 µM [falling, partial curve, poor fit]",
CNCCc1c[nH]c2ccc(O)cc12,,"0.2 µM [rising, full curve, poor fit]"
O=c1c2ccccc2nc(C[n+]2ccccc2)n1-c1cccc(C(F)(F)F)c1,"1.26 µM [falling, full curve, poor fit]","12.6 µM [falling, partial curve, poor fit]"
Cc1ccc(CNc2cc(C)nc3nc(-c4ccc(C)cc4)nn23)cc1,"22.4 µM [rising, single point]",
